For experiment [1], the target named is CO/NF-YC9 mixture (mCherry-CO with NF-YC9-GFP), immobilised together (Arabidopsis thaliana) (UniProt Q39057+Q8L4B2). Kind of experiment: SPR; Biacore T200, 25 °C; CO, NF-YC9 or a CO/NF-YC9 mixture (4:1) amine-coupled to a CM5 chip (1000-2000 RU); analytes NF-YB2, CO, NF-YC9 in twofold dilutions; HBST (10 mM HEPES, 150 mM NaCl, 3 mM EDTA, 0.05% Tween 20, pH 7.4); bivalent analyte model; both purified.

The chains behind the UniProt entries cited, without tags or fusion partners.
UniProt Q39057: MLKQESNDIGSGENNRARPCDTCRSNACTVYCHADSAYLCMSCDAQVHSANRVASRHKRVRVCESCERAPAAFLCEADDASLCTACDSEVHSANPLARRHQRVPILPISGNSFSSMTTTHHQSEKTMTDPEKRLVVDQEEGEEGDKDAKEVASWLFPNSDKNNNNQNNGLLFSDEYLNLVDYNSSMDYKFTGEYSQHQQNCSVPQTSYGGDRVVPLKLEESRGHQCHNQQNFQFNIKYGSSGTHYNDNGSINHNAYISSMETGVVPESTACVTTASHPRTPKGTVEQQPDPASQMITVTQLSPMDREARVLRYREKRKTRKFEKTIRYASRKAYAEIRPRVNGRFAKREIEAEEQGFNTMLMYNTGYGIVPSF

Substrate in experiment [2]: CO (CONSTANS), yeast two-hybrid fusion (Arabidopsis thaliana) (UniProt Q39057)
The experiment in a line: two-hybrid; yeast AH109; pGBKT7 and pGADT7 fusions; growth on SD/-Trp/-Leu/-His with 10 mM 3-AT.

These are yes or no findings as the source states them, for the method shown. Some entries that bind do so weakly or less than the wild type. For part of these data: Sequences can lack the tags named with a protein.

B1: NF-YB2, recombinant (natural protein, Arabidopsis thaliana, UniProt Q9FGJ3 1-190, looked up)
chain: MGDSDRDSGGGQNGNNQNGQSSLSPREQDRFLPIANVSRIMKKALPANAKISKDAKETMQECVSEFISFVTGEASDKCQKEKRKTINGDDLLWAMTTLGFEDYVEPLKVYLQRFREIEGERTGLGRPQTGGEVGEHQRDAVGDGGGFYGGGGGMQYHQHHQFLHQQNHMYGATGGGSDSGGGAASGRTRT
notes: Nuclear Factor-Y subunit B2 (NF-YB2), Arabidopsis thaliana; Unlabelled form, as used in SPR; also called His-NF-YB2; source: E. coli Rosetta pLysS, purified (HisTrap; size exclusion when necessary)
In the case of B1, the binding entry in experiment [1] is given as “binds”.

B2: NF-YC9, full length, yeast two-hybrid fusion (protein, UniProt Q8L4B2 1-231)
chain: MDQQDHGQSGAMNYGTNPYQTNPMSTTAATVAGGAAQPGQLAFHQIHQQQQQQQLAQQLQAFWENQFKEIEKTTDFKNHSLPLARIKKIMKADEDVRMISAEAPVVFARACEMFILELTLRSWNHTEENKRRTLQKNDIAAAVTRTDIFDFLVDIVPREDLRDEVLGSIPRGTVPEAAAAGYPYGYLPAGTAPIGNPGMVMGNPGGAYPPNPYMGQPMWQQQAPDQPDQEN
Turning to B2, the binding result in experiment [2] is “binds”.

B3: NF-YC9-∆IDR1&2, yeast two-hybrid fusion (domain or fragment, UniProt Q8L4B2 55-166)
chain: LAQQLQAFWENQFKEIEKTTDFKNHSLPLARIKKIMKADEDVRMISAEAPVVFARACEMFILELTLRSWNHTEENKRRTLQKNDIAAAVTRTDIFDFLVDIVPREDLRDEVL
Consider B3, for which the binding result in experiment [2] is “binds”.
